Experimental findings from patent US20160257958 are described below.

Sequences of proteins named here, by UniProt entry; tags and fusion partners are left off. A change or cut given only in a name is not applied to a line headed by its entry.
UniProt P81172: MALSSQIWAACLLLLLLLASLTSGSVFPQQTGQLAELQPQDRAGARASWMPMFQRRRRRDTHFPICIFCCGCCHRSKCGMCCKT
UniProt Q9EQ21: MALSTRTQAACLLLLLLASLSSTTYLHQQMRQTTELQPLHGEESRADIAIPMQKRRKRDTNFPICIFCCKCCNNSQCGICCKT
UniProt Q99MH3: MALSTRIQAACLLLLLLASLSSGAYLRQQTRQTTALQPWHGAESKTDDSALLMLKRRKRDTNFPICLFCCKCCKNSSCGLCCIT

Series [1] addresses T1, human hepcidin-25 (L-peptide) (Homo sapiens) (UniProt P81172).
T1 sequence: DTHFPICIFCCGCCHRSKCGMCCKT
Nature of the series: SPR. The conditions noted are these: L-RNA, synthetic protein, mirror-image nucleic acid.

Series [2] relates to T2, cynomolgus hepcidin-25 (Macaca fascularis).
T2 sequence: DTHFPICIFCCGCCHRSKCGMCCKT
Nature of the series: binding assay. The conditions noted are these: L-RNA, similar to human hepcidin-25, synthetic protein, protein details: synthetic L-peptide, mirror-image nucleic acid.

Series [3] deals with human hepcidin-20 (Homo sapiens) (UniProt P81172). The experiment in a line: binding assay. The conditions noted are these: L-RNA, similar to human hepcidin-25, synthetic protein, protein details: synthetic L-peptide (BACHEM), mirror-image nucleic acid.
Series [4] has as its target human hepcidin-22 (Homo sapiens) (UniProt P81172). The experiment in a line: binding assay. Particulars: L-RNA, similar to human hepcidin-25, synthetic protein, protein details: synthetic L-peptide, mirror-image nucleic acid.
Series [5] concerns the target T3, marmoset hepcidin-25 (UniProt A7XEI5).
T3 sequence (looked up): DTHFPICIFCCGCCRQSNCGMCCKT
The experiment in a line: binding assay. The conditions noted are these: L-RNA, synthetic protein, protein details: synthetic L-peptide, mirror-image nucleic acid.

Series [6] has as its target T4, mouse hepcidin-25 (Mus musculus) (UniProt Q9EQ21).
T4 sequence: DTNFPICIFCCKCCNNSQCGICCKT
The experiment in a line: binding assay. The conditions noted are these: L-RNA, no binding, synthetic protein, protein details: synthetic L-peptide (BACHEM), mirror-image nucleic acid.

Series [7] has as its target T5, rat hepcidin-25 (Rattus norvegicus) (UniProt Q99MH3).
T5 sequence: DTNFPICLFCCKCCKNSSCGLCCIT
Nature of the series: binding assay. Particulars: L-RNA, no binding, synthetic protein, protein details: synthetic L-peptide (BACHEM), mirror-image nucleic acid.

Series [8] addresses T1, human hepcidin-25 (L-peptide) (Homo sapiens). Nature of the series: activity in cells. Particulars: L-RNA, synthetic protein, mirror-image nucleic acid.
In series [9] the target is human hepcidin-20 (Homo sapiens) (UniProt P81172). The experiment in a line: SPR. Particulars: L-RNA; almost same affinity as for hepcidin-25; synthetic protein; protein details: synthetic L-peptide (BACHEM); mirror-image nucleic acid; variant of 223-C5-001 (D-RNA).

Construct, isoform or probe ends are uncertain for at least one entry. For part of these data: Negatives hold for the conditions tested. For part of these data: Where a protein sequence is shown, tags need not be part of it. For part of these data: The comparison behind a weaker result is the experiment's own reference, which may not be listed here.

As for “GGCCGGACAGCCGGGGGACACCAUAUACAGACUACGAUACGGCC [238-C4-006 (L-RNA)]”, the binding result in series [1] (Kd in same range as 238-C4-001, variant of 238-C4-006 (D-RNA)) is “binds”; in series [2] (variant of 238-C4-006 (D-RNA)) it was “binds”; in series [3] (variant of 238-C4-006 (D-RNA)), “binds”; in [4] (variant of 238-C4-006 (D-RNA)) it was “binds”; in series [5] (no binding, variant of 238-C4-006 (D-RNA)), “no binding”; in [6] (variant of 238-C4-006 (D-RNA)), “no binding”. For the same sequence, the binding result in series [7] (variant of 238-C4-006 (D-RNA)) is “no binding”.

Turning to “AGCGUGUCGUAUGGGAUUAAGUAAAUGAGGAGUUGGAGGAAGGGCAUGCU [238-D4-001 (L-RNA)]”, the binding result is “binds” in [2] (variant of 238-D4-001 (D-RNA)); “binds” in series [3] (variant of 238-D4-001 (D-RNA)); “binds” in series [4] (variant of 238-D4-001 (D-RNA)); “no binding” in series [6] (variant of 238-D4-001 (D-RNA)); “no binding” in [7] (variant of 238-D4-001 (D-RNA)).

Consider “GCGCGCGUAUGGGAUUAAGUAAAUGAGGAGUUGGAGGAAGGCGCGC [238-D4-002 (L-RNA)]”, for which the binding result in series [1] (Kd in same range as 238-D4-001, variant of 238-D4-002 (D-RNA)) is “binds”.

“GCGCCGUAUGGGAUUAAGUAAAUGAGGAGUUGGAGGAAGGGCGC [238-D4-008-5'-PEG (NOX-H94)]”: in series [8] (5'-40 kDa PEG, blocks hepcidin-induced ferroportin down-regulation in J774.1 cells, variant of 238-D4-008 (L-RNA), dose not given here), the “functional effect of the aptamer” value is given as “active”.

With “GCACUCGUAAAGUAGAGGGACCCAGUCCGGCGUGAUAGUGCCGAGUGC [223-C5-001-5'-PEG]”, the “functional effect of the aptamer” value in [8] (5'-40 kDa PEG, blocks ferroportin down-regulation by 100 nM hepcidin in J774.1 cells, variant of 223-C5-001 (L-RNA)) was “active”.

With “GGUGUCGUAUGGGAUUAAGUAAAUGAGGAGUUGGAGGAAGGGCAUC [238-D4-006 (L-RNA)]”, in series [1] (Kd in same range as 238-D4-001, variant of 238-D4-006 (D-RNA)), the binding result was “binds”.

Regarding “GCUGUGUAAAGUAGAGGACAAUUGUCGGCGUGAUAGUGCCACAGC [229-B1-002 (L-RNA)]”, the binding result is reported as “binds” in series [2] (variant of 229-B1-002 (D-RNA)); “binds” in series [3] (variant of 229-B1-002 (D-RNA)); “binds” in series [4] (variant of 229-B1-002 (D-RNA)); “no binding” in series [6] (variant of 229-B1-002 (D-RNA)); “no binding” in series [7] (variant of 229-B1-002 (D-RNA)).

As to “GCACUCGUAAAGUAGAGGGACCCAGUCCGGCGUGAUAGUGCCGAGUGC [223-C5-001 (L-RNA)]”, the binding result in [9] is “binds”.

Regarding “GCGCCGUAUGGGAUUAAGUAAAUGAGGAGUUGGAGGAAGGGCGC [238-D4-008-5'-Amino]”, in [8] (5'-amino, blocks hepcidin-induced ferroportin down-regulation in J774.1 cells, variant of 238-D4-008 (L-RNA), dose not given here), the “functional effect of the aptamer” value is listed as “active”.

As for “GGCUCGGACAGCCGGGGGACACCAUAUACAGACUACGAUACGGGCC [238-C4-002 (L-RNA)]”, the binding result in series [1] (Kd in same range as 238-C4-001, variant of 238-C4-002 (D-RNA)) is given as “binds”.

“GCGCCGUAUGGGAUUAAGUAAAUGAGGAGUUGGAGGAAGGGCGC [238-D4-008 (L-RNA)]”: the binding result in series [1] (Kd in same range as 238-D4-001, variant of 238-D4-008 (D-RNA)) is reported as “binds”; in series [2] (variant of 238-D4-008 (D-RNA)), “binds”; in [3] (variant of 238-D4-008 (D-RNA)), “binds”; in series [5] (weaker than human hepcidin-25, variant of 238-D4-008 (D-RNA)) it was “binds more weakly”; in [6] (variant of 238-D4-008 (D-RNA)) it was “no binding”; in series [7] (variant of 238-D4-008 (D-RNA)) it was “no binding”.
